Results deposited as PubChem BioAssay AID686943 (Drosophila RNAi Screening Center, 2013)
Assay: 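Search across the genome for regulators of signalling from receptor tyrosine kinase to ERK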 (primary screen). System: Drosophila S2R+ haemocyte-like cells expressing YFP-tagged ERK (Rolled). Reagent: long dsRNA against Drosophila genes. Challenge: insulin stimulation versus unstimulated cells; dose and duration not given. Read-out: 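Antibody staining for doubly phosphorylated ERK divided by ERK-YFP signal, as plate z-scores, in insulin-treated and untreated cells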. Scale: replicate 1, z-score of dpERK with insulin and replicate 2, z-score of dpERK with insulin: higher = more active ERK per ERK-YFP after insulin.
In all, the deposit lists about 23,000 reagents; this is an unselected part of those that have a named target and a result. 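Extra replicates exist only for a retested subset of genes; insulin dose and duration not given; both raised and lowered dpERK matter.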 Names joined by + are all predicted targets of the reagent. Further read-outs or replicates are left out here. Reagent sequences are not shown. The record does not give: the amount of reagent, the time to read-out.

{"Gene": "Klc", "DRSC id": "DRSC11203", "replicate 1, z-score of dpERK with insulin": -0.83, "replicate 2, z-score of dpERK with insulin": -0.5}
{"Gene": "Mondo", "DRSC id": "DRSC02667", "replicate 1, z-score of dpERK with insulin": 0.14, "replicate 2, z-score of dpERK with insulin": -0.67}
{"Gene": "Mondo", "DRSC id": "DRSC02668", "replicate 1, z-score of dpERK with insulin": 0.77, "replicate 2, z-score of dpERK with insulin": 0.61}
{"Gene": "Mondo", "DRSC id": "DRSC22006", "replicate 1, z-score of dpERK with insulin": -0.99, "replicate 2, z-score of dpERK with insulin": -1.45}
{"Gene": "CG4465", "DRSC id": "DRSC15584", "replicate 1, z-score of dpERK with insulin": -0.53, "replicate 2, z-score of dpERK with insulin": 0.11}
{"Gene": "CG32107", "DRSC id": "DRSC09221", "replicate 1, z-score of dpERK with insulin": 0.04, "replicate 2, z-score of dpERK with insulin": -0.01}
{"Gene": "ome", "DRSC id": "DRSC09322", "replicate 1, z-score of dpERK with insulin": 0.34, "replicate 2, z-score of dpERK with insulin": 0.42}
{"Gene": "ome", "DRSC id": "DRSC10282", "replicate 1, z-score of dpERK with insulin": -2.54, "replicate 2, z-score of dpERK with insulin": -0.06}
{"Gene": "ome", "DRSC id": "DRSC11380", "replicate 1, z-score of dpERK with insulin": 0.3, "replicate 2, z-score of dpERK with insulin": 0.6}
{"Gene": "CG34337", "DRSC id": "DRSC18435", "replicate 1, z-score of dpERK with insulin": 0.01, "replicate 2, z-score of dpERK with insulin": 0.6}
{"Gene": "ng4", "DRSC id": "DRSC18805", "replicate 1, z-score of dpERK with insulin": 0.56, "replicate 2, z-score of dpERK with insulin": -0.15}
{"Gene": "sala + CG43355", "DRSC id": "DRSC01188", "replicate 1, z-score of dpERK with insulin": 0.55, "replicate 2, z-score of dpERK with insulin": 0.42}
{"Gene": "sala + CG43355", "DRSC id": "DRSC03605", "replicate 1, z-score of dpERK with insulin": 0.04, "replicate 2, z-score of dpERK with insulin": -0.2}
{"Gene": "CG12448", "DRSC id": "DRSC01967", "replicate 1, z-score of dpERK with insulin": -0.58, "replicate 2, z-score of dpERK with insulin": -0.36}
{"Gene": "CG14414", "DRSC id": "DRSC19599", "replicate 1, z-score of dpERK with insulin": 0.99, "replicate 2, z-score of dpERK with insulin": 0.51}
{"Gene": "CG3061", "DRSC id": "DRSC15460", "replicate 1, z-score of dpERK with insulin": -0.05, "replicate 2, z-score of dpERK with insulin": -0.32}
{"Gene": "Mrtf", "DRSC id": "DRSC08263", "replicate 1, z-score of dpERK with insulin": -2.74, "replicate 2, z-score of dpERK with insulin": -2.04}
{"Gene": "Mrtf", "DRSC id": "DRSC08410", "replicate 1, z-score of dpERK with insulin": -1.06, "replicate 2, z-score of dpERK with insulin": 1.35}
{"Gene": "Mrtf", "DRSC id": "DRSC08411", "replicate 1, z-score of dpERK with insulin": 0.38, "replicate 2, z-score of dpERK with insulin": -0.61}
{"Gene": "ppk13", "DRSC id": "DRSC02382", "replicate 1, z-score of dpERK with insulin": 0.16, "replicate 2, z-score of dpERK with insulin": 0.26}
{"Gene": "CG11858", "DRSC id": "DRSC14412", "replicate 1, z-score of dpERK with insulin": 1.8, "replicate 2, z-score of dpERK with insulin": -0.15}
{"Gene": "CHKov1", "DRSC id": "DRSC01566", "replicate 1, z-score of dpERK with insulin": 0.58, "replicate 2, z-score of dpERK with insulin": 1.06}
{"Gene": "CHKov1", "DRSC id": "DRSC01696", "replicate 1, z-score of dpERK with insulin": -0.43, "replicate 2, z-score of dpERK with insulin": 0.63}
{"Gene": "CHKov1", "DRSC id": "DRSC14258", "replicate 1, z-score of dpERK with insulin": 0.1, "replicate 2, z-score of dpERK with insulin": -0.38}
{"Gene": "CHKov1", "DRSC id": "DRSC20937", "replicate 1, z-score of dpERK with insulin": 0.78, "replicate 2, z-score of dpERK with insulin": -0.49}
{"Gene": "CG13563", "DRSC id": "DRSC22153", "replicate 1, z-score of dpERK with insulin": 0.13, "replicate 2, z-score of dpERK with insulin": 0.66}
{"Gene": "Nmnat", "DRSC id": "DRSC14644", "replicate 1, z-score of dpERK with insulin": 1.16, "replicate 2, z-score of dpERK with insulin": -0.2}
{"Gene": "CG5767", "DRSC id": "DRSC06953", "replicate 1, z-score of dpERK with insulin": 1.24, "replicate 2, z-score of dpERK with insulin": 0.69}
{"Gene": "ND-B14.5B", "DRSC id": "DRSC00346", "replicate 1, z-score of dpERK with insulin": 0.13, "replicate 2, z-score of dpERK with insulin": -1.05}
{"Gene": "nAChRalpha5", "DRSC id": "DRSC01360", "replicate 1, z-score of dpERK with insulin": 1.71, "replicate 2, z-score of dpERK with insulin": 0.89}
{"Gene": "nAChRalpha5", "DRSC id": "DRSC01946", "replicate 1, z-score of dpERK with insulin": 0.95, "replicate 2, z-score of dpERK with insulin": 0.19}
{"Gene": "nAChRalpha5", "DRSC id": "DRSC01947", "replicate 1, z-score of dpERK with insulin": 1.12, "replicate 2, z-score of dpERK with insulin": 0.75}
{"Gene": "nAChRalpha5", "DRSC id": "DRSC22785", "replicate 1, z-score of dpERK with insulin": 0.47, "replicate 2, z-score of dpERK with insulin": 1.05}

Records above whose gene name starts with S or s (2):
{"Gene": "sala + CG43355", "DRSC id": "DRSC01188", "replicate 1, z-score of dpERK with insulin": 0.55, "replicate 2, z-score of dpERK with insulin": 0.42}
{"Gene": "sala + CG43355", "DRSC id": "DRSC03605", "replicate 1, z-score of dpERK with insulin": 0.04, "replicate 2, z-score of dpERK with insulin": -0.2}
